This is an account of results in PubChem BioAssay AID248 (DTP/NCI, 2004).

The list does not hold the whole screen: it gathers tests that were run many times, whatever their T/C, doses with no T/C, and many T/C values between a quarter and a half above the control. Further doses and runs are listed elsewhere. T/C: endpoint of the treated group in % of that of the vehicle group. Some entries give survivors of the animals treated and no T/C: the source files T/C as zero there, which appears to mark a toxic dose or a test without result, not a measured value. Some doses without a T/C left all or most animals alive at the check, yet need not have been tolerated: the source hardly ever lists a survival T/C far under the control, and the zero likely stands for such cases as well. Counts of survivors are from the toxicity check (mostly the fifth day) where no day follows; animals may have died later. Schedules are NCI's codes, taken here to give the interval after Q, in days (D) or hours (H), and the number of doses after X. Some schedule codes hold Z or #, which are not explained here. Where survival is the endpoint, this PubChem deposit counts one and a half times the control or more as active, and values a quarter to a half above the control carry no call in these data; other NCI protocols may use other cut-offs. Some T/C values are followed by the survivors on the day toxicity was checked, most often the fifth; without a count, all were alive then.

This test deals with L1210 leukemia ip in BDF1 mice, survival T/C. Nature of the test: NCI In Vivo Anticancer Drug Screen. Data for tumor model L1210 Leukemia (intraperitoneal) in B6D2F1 (BDF1) mice. As to conditions: higher T/C = longer survival.

In the case of `O=C1OC2C3C=CC(CC3)C2O1` (stereo unspecified), the survivor count is on record as 2 of 6 (T/C endpoint: mean survival time, dose: 60.0 mg/kg/injection, schedule: Q01DX001 (ip), vehicle: carboxymethylcellulose (CMC)); 0 of 6 (T/C endpoint: mean survival time, dose: 75.0 mg/kg/injection, schedule: Q01DX001 (ip), vehicle: carboxymethylcellulose (CMC)); 0 of 6 (T/C endpoint: mean survival time, dose: 150.0 mg/kg/injection, schedule: Q01DX001 (ip), vehicle: carboxymethylcellulose (CMC)); 0 of 6 (T/C endpoint: mean survival time, dose: 300.0 mg/kg/injection, schedule: Q01DX001 (ip), vehicle: carboxymethylcellulose (CMC)).

Turning to `C[P+]1(CCc2ccccc2)CC(Br)C(Br)C1` (stereo unspecified), the survivor count reads like this: (T/C endpoint: mean survival time, dose: 100.0 mg/kg/injection, schedule: Q04DX003 (ip), vehicle: Klucel (hydroxypropylcellulose) (HPC)) 3 of 6; (T/C endpoint: mean survival time, dose: 200.0 mg/kg/injection, schedule: Q04DX003 (ip), vehicle: Klucel (hydroxypropylcellulose) (HPC)) 0 of 6; (T/C endpoint: mean survival time, dose: 400.0 mg/kg/injection, schedule: Q04DX003 (ip), vehicle: Klucel (hydroxypropylcellulose) (HPC)) 0 of 6.

For `COc1ccccc1N=NN(C)C`, the survivor count by setting is: (T/C endpoint: mean survival time, dose: 12.0 mg/kg/injection, schedule: Q01DX009 (ip), vehicle: Klucel (hydroxypropylcellulose) (HPC)) 3 of 6; (T/C endpoint: mean survival time, dose: 12.5 mg/kg/injection, schedule: Q01DX009 (ip), vehicle: Klucel (hydroxypropylcellulose) (HPC)) 6 of 6; (T/C endpoint: mean survival time, dose: 25.0 mg/kg/injection, schedule: Q01DX009 (ip), vehicle: Klucel (hydroxypropylcellulose) (HPC)) 0 of 6; (T/C endpoint: mean survival time, dose: 25.0 mg/kg/injection, schedule: Q04DX003 (ip), vehicle: Klucel (hydroxypropylcellulose) (HPC)) 6 of 6; (T/C endpoint: mean survival time, dose: 50.0 mg/kg/injection, schedule: Q01DX009 (ip), vehicle: Klucel (hydroxypropylcellulose) (HPC)) 0 of 6; (T/C endpoint: mean survival time, dose: 100.0 mg/kg/injection, schedule: Q01DX009 (ip), vehicle: Klucel (hydroxypropylcellulose) (HPC)) 0 of 6. Moreover, the survivor count is given as 0 of 6 (T/C endpoint: mean survival time, dose: 200.0 mg/kg/injection, schedule: Q01DX009 (ip), vehicle: Klucel (hydroxypropylcellulose) (HPC)) and 0 of 6 (T/C endpoint: mean survival time, dose: 400.0 mg/kg/injection, schedule: Q01DX009 (ip), vehicle: Klucel (hydroxypropylcellulose) (HPC)).

Turning to `Cc1cc(NCCCCCCNc2cc(C)nc3ccc(N)cc23)c2cc(N)ccc2n1`, the T/C by setting is: (T/C endpoint: mean survival time, dose: 9.3 mg/kg/injection, schedule: Q01DX009 (ip), vehicle: saline with Tween-80) 135 % of control; (T/C endpoint: mean survival time, dose: 18.0 mg/kg/injection, schedule: Q01DX009 (ip), vehicle: saline) 131 % of control; (T/C endpoint: mean survival time, dose: 24.75 mg/kg/injection, schedule: Q01DX009 (ip), vehicle: saline) 127 % of control; (T/C endpoint: mean survival time, dose: 37.5 mg/kg/injection, schedule: Q01DX009 (ip), vehicle: acetone) 134 % of control [5 of 6 alive]; (T/C endpoint: mean survival time, dose: 266.0 mg/kg/injection, schedule: Q04DX003 (ip), vehicle: Klucel (hydroxypropylcellulose) (HPC)) 147 % of control [4 of 6 alive]. Also, the survivor count (T/C endpoint: mean survival time, dose: 150.0 mg/kg/injection, schedule: Q01DX009 (ip), vehicle: saline) is on record as 4 of 6; the survivor count (T/C endpoint: mean survival time, dose: 300.0 mg/kg/injection, schedule: Q01DX009 (ip), vehicle: acetone) is given as 5 of 6; the survivor count (T/C endpoint: mean survival time, dose: 300.0 mg/kg/injection, schedule: Q01DX009 (ip), vehicle: saline) is reported as 4 of 6; the survivor count (T/C endpoint: mean survival time, dose: 400.0 mg/kg/injection, schedule: Q04DX003 (ip), vehicle: saline with Tween-80) is recorded as 6 of 6; the survivor count (T/C endpoint: median survival time, dose: 2.0 mg/kg/injection, schedule: Q01DX001 (ip), vehicle: citric acid) is recorded as 5 of 8; the survivor count (T/C endpoint: median survival time, dose: 4.0 mg/kg/injection, schedule: Q01DX001 (ip), vehicle: citric acid) was 5 of 8. Also, the survivor count by setting is: (T/C endpoint: median survival time, dose: 8.0 mg/kg/injection, schedule: Q01DX001 (ip), vehicle: citric acid) 3 of 8; (T/C endpoint: median survival time, dose: 16.0 mg/kg/injection, schedule: Q01DX001 (ip), vehicle: citric acid) 5 of 8; (T/C endpoint: median survival time, dose: 32.0 mg/kg/injection, schedule: Q01DX001 (ip), vehicle: citric acid) 0 of 8; (T/C endpoint: median survival time, dose: 64.0 mg/kg/injection, schedule: Q01DX001 (ip), vehicle: citric acid) 0 of 8; (T/C endpoint: median survival time, dose: 64.0 mg/kg/injection, schedule: Q01DX001 (ip), vehicle: lactic acid) 2 of 8; (T/C endpoint: median survival time, dose: 128.0 mg/kg/injection, schedule: Q01DX001 (ip), vehicle: lactic acid) 0 of 8. Further, the survivor count is 3 of 8 (T/C endpoint: median survival time, dose: 512.0 mg/kg/injection, schedule: Q01DX001 (oral), vehicle: citric acid) and 5 of 8 (T/C endpoint: median survival time, dose: 512.0 mg/kg/injection, schedule: Q01DX001 (oral), vehicle: lactic acid).

`Cc1ccc(NC(=O)N(CCCl)N=O)c(C)c1`: the T/C by setting is: (T/C endpoint: mean survival time, dose: 12.5 mg/kg/injection, schedule: Q01DX001 (ip), vehicle: other) 136 % of control; (T/C endpoint: mean survival time, dose: 36.0 mg/kg/injection, schedule: Q01DX009 (ip), vehicle: other) 126 % of control [5 of 6 alive]. Moreover, the survivor count is, setting by setting: (T/C endpoint: mean survival time, dose: 100.0 mg/kg/injection, schedule: Q01DX001 (ip), vehicle: other) 6 of 6; (T/C endpoint: mean survival time, dose: 200.0 mg/kg/injection, schedule: Q01DX001 (ip), vehicle: other) 1 of 6; (T/C endpoint: mean survival time, dose: 400.0 mg/kg/injection, schedule: Q01DX001 (ip), vehicle: other) 0 of 6.

With `N#CCCNC(=S)Nc1ccccc1`, the survivor count by setting is: (T/C endpoint: mean survival time, dose: 100.0 mg/kg/injection, schedule: Q01DX Z (ip), vehicle: methylcellulose (MC)) 6 of 6; (T/C endpoint: mean survival time, dose: 200.0 mg/kg/injection, schedule: Q01DX Z (ip), vehicle: methylcellulose (MC)) 5 of 6.

In the case of `CC12CC(=O)OC1(C)C1CCC2C1` (stereo unspecified), the survivor count is 4 of 6 (T/C endpoint: mean survival time, dose: 25.0 mg/kg/injection, schedule: Q01DX009 (ip), vehicle: acetone); 2 of 6 (T/C endpoint: mean survival time, dose: 50.0 mg/kg/injection, schedule: Q01DX001 (ip), vehicle: acetone); 0 of 6 (T/C endpoint: mean survival time, dose: 100.0 mg/kg/injection, schedule: Q01DX001 (ip), vehicle: acetone); 0 of 6 (T/C endpoint: mean survival time, dose: 200.0 mg/kg/injection, schedule: Q01DX001 (ip), vehicle: acetone); 0 of 6 (T/C endpoint: mean survival time, dose: 400.0 mg/kg/injection, schedule: Q01DX001 (ip), vehicle: acetone).
